21 molecules from PubChem BioAssay AID206 (DTP/NCI, 2004) can be followed below.

The structures appear in SMILES notation. The list does not hold the whole screen: it is rich in T/C values a quarter to a half above the control, in often repeated tests (any T/C) and in doses without a T/C. Further doses and runs are listed elsewhere. T/C gives the treated animals as a percentage of the vehicle group. Schedules are NCI's codes, read here as Q, the interval in days (D) or hours (H), X, the number of doses. Some entries were tested several times; the values are given in rising order. Some doses have a count of surviving animals in place of a T/C: the source holds a T/C of zero for them, seemingly a mark for toxic or unscored doses. Counts of survivors are from the toxicity check (mostly the fifth day) where no day follows; animals may have died later.

The assay relates to nude mice, HT29 intrarenal xenograft, tumor weight T/C. Nature of the assay: NCI In Vivo Anticancer Drug Screen. Data for tumor model HT29;CX-1 Human Adenocarcinoma (MER+) (intrarenal inoculation) in NU/NU Swiss (nude) mice. Particulars: T/C endpoint: mean tumor weight change, higher T/C = larger tumour. The essentials: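 Tumor-bearing mice received test compound or vehicle, and tumor size or survival was recorded. Values are the treated-group measurement divided by the vehicle-treated control measurement.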

[1] abbreviates: dose: 300.0 mg/kg/injection, schedule: Q04DX004 (sc), vehicle: Klucel (hydroxypropylcellulose) (HPC).
The mark [2] stands for this setting: dose: 600.0 mg/kg/injection, schedule: Q04DX004 (sc), vehicle: saline with Tween-80.
Setting [3] is: dose: 1200.0 mg/kg/injection, schedule: Q04DX004 (sc), vehicle: saline with Tween-80.

`CSc1ncnc2c1ncn2C1OC(CO)C(O)C1O` (configuration not stated): the T/C (dose: 150.0 mg/kg/injection, schedule: Q04DX004 (sc), vehicle: saline + alcohol, evaluated on day 15) is listed as 4, 23, 34, 51 % of control. The survivor count by setting is: (dose: 200.0 mg/kg/injection, schedule: Q04DX004 (sc), vehicle: saline + alcohol) 3 of 6 on day 15; (dose: 300.0 mg/kg/injection, schedule: Q04DX004 (sc), vehicle: saline + alcohol) 0 of 6 on day 15, 1 of 6 on day 15, 3 of 6 on day 15.

With `CC1(O)CC23CC(O)C4(O)C(CC(O)C4(C)C)C(C)(O)C2CCC1C3O` (configuration not stated), the survivor count (dose: 2.0 mg/kg/injection, schedule: Q04DX004 (sc), vehicle: Klucel (hydroxypropylcellulose) (HPC)) was 0 of 6 on day 15.

With `Cc1c2ccc3ccccc3c2c[n+]2ccccc12`, the survivor count (dose: 37.5 mg/kg/injection, schedule: Q04DX004 (sc), vehicle: Klucel (hydroxypropylcellulose) (HPC)) is 1 of 4 on day 15; the survivor count (dose: 75.0 mg/kg/injection, schedule: Q04DX004 (sc), vehicle: Klucel (hydroxypropylcellulose) (HPC)) is recorded as 0 of 4 on day 15; the survivor count (dose: 150.0 mg/kg/injection, schedule: Q04DX004 (sc), vehicle: Klucel (hydroxypropylcellulose) (HPC)) is given as 0 of 4 on day 15; the survivor count under setting [1] was 0 of 4 on day 15.

Take `O=S(=O)(CCl)OCCCl`: the survivor count reads like this: (dose: 200.0 mg/kg/injection, schedule: Q04DX004 (sc), vehicle: saline with Tween-80) 0 of 6 on day 15; (dose: 400.0 mg/kg/injection, schedule: Q04DX004 (sc), vehicle: saline with Tween-80) 0 of 6 on day 15.

In the case of `CC1OC1C(=O)C1(O)C(C)C(O)C23OC2(C(O)c2c(O)cccc2C3=O)C1O` (configuration not stated), the survivor count (dose: 96.0 mg/kg/injection, schedule: Q04DX004 (sc), vehicle: Klucel (hydroxypropylcellulose) (HPC)) is 0 of 6 on day 15.

In the case of `CN(Cc1cnc2nc(N)nc(N)c2n1)c1c(Cl)cc(C(=O)NC(CCC(=O)O)C(=O)O)cc1Cl` (configuration not stated), where the note is “dose: 50.0 mg/kg/injection, schedule: Q01DX010 (sc), vehicle: Klucel (hydroxypropylcellulose) (HPC), evaluated on day 11”, the T/C is 148 % of control. Further, the survivor count (dose: 100.0 mg/kg/injection, schedule: Q01DX010 (sc), vehicle: Klucel (hydroxypropylcellulose) (HPC)) was 1 of 3 on day 11.

As to `[N-]=[N+]=CC(=O)CCC(N)C(=O)O` (configuration not stated), the survivor count runs as follows: (dose: 0.4 mg/kg/injection, schedule: Q01DX010 (sc), vehicle: saline) 0 of 3 on day 11; (dose: 0.8 mg/kg/injection, schedule: Q01DX010 (sc), vehicle: saline) 0 of 3 on day 11 and 1 of 3 on day 11; (dose: 1.6 mg/kg/injection, schedule: Q01DX010 (sc), vehicle: saline) 0 of 3 on day 11; (dose: 3.2 mg/kg/injection, schedule: Q01DX010 (sc), vehicle: saline) 0 of 3 on day 11; (dose: 6.4 mg/kg/injection, schedule: Q01DX010 (sc), vehicle: saline) 0 of 3 on day 11.

In the case of `Nc1nc(-c2cccc3ccccc23)cc2ccccc12`, the T/C (dose: 100.0 mg/kg/injection, schedule: Q04DX004 (sc), vehicle: saline with Tween-80, evaluated on day 15) was 137 % of control. Further, the survivor count (dose: 1600.0 mg/kg/injection, schedule: Q04DX004 (sc), vehicle: saline with Tween-80) is given as 3 of 5 on day 15.

Regarding `CC(=O)[C@]1(O)Cc2c(O)c3c(c(O)c2[C@@H](OC2CC(N)C(O)C(C)O2)C1)C(=O)c1c(O)cccc1C3=O` (some centres not stated), the survivor count is reported as 1 of 3 on day 20 (dose: 2.5 mg/kg/injection, schedule: Q04DX004 (sc), vehicle: saline) and 0 of 3 on day 20 (dose: 5.0 mg/kg/injection, schedule: Q04DX004 (sc), vehicle: saline).

As for `C[n+]1ccc(Nc2ccc(NC(=O)c3ccc(Nc4cc[n+](C)c5ccc(N)cc45)cc3)cc2)cc1`, the survivor count (dose: 64.0 mg/kg/injection, schedule: Q04DX004 (sc), vehicle: distilled water + Tween-80) is on record as 2 of 6 on day 15; the survivor count (dose: 100.0 mg/kg/injection, schedule: Q04DX004 (sc), vehicle: distilled water + Tween-80) is 1 of 6 on day 15; the survivor count (dose: 200.0 mg/kg/injection, schedule: Q04DX004 (sc), vehicle: distilled water + Tween-80) was 0 of 6 on day 15.

For `O=c1[nH]cnc2n[nH]nc12`, the survivor count (dose: 1200.0 mg/kg/injection, schedule: Q04DX004 (sc), vehicle: Klucel (hydroxypropylcellulose) (HPC)) is reported as 2 of 5 on day 15.

Regarding `C#C[C@]1(O)CC[C@H]2[C@@H]3CCc4cc(O)ccc4[C@H]3CC[C@@]21C`, the survivor count under setting [1] was 3 of 6 on day 15.

Regarding `COc1ccc(S(=O)(=O)N=N/C=C2\C=CC=CN2O)cc1OC`, the T/C (dose: 75.0 mg/kg/injection, schedule: Q04DX004 (sc), vehicle: saline with Tween-80, evaluated on day 15) is 144 % of control. The survivor count is given as 2 of 6 on day 15 under setting [2] and 1 of 6 on day 15 under setting [3].

Take `Nc1nc(=S)c2ncn(C3CC(O)C(CO)O3)c2[nH]1` (configuration not stated): the survivor count (dose: 5.0 mg/kg/injection, schedule: Q01DX010 (sc), vehicle: saline with Tween-80) is given as 0 of 3 on day 11; the survivor count (dose: 10.0 mg/kg/injection, schedule: Q01DX010 (sc), vehicle: saline with Tween-80) was 0 of 3 on day 11; the survivor count (dose: 15.0 mg/kg/injection, schedule: Q04DX004 (sc), vehicle: saline with Tween-80) is 2 of 6 on day 15; the survivor count (dose: 20.0 mg/kg/injection, schedule: Q01DX010 (sc), vehicle: saline with Tween-80) was 0 of 3 on day 11; the survivor count (dose: 40.0 mg/kg/injection, schedule: Q01DX010 (sc), vehicle: saline with Tween-80) is listed as 0 of 3 on day 11; the survivor count (dose: 200.0 mg/kg/injection, schedule: Q01DX010 (sc), vehicle: Klucel (hydroxypropylcellulose) (HPC)) is 0 of 3 on day 11. The survivor count (dose: 400.0 mg/kg/injection, schedule: Q01DX010 (sc), vehicle: Klucel (hydroxypropylcellulose) (HPC)) is reported as 0 of 3 on day 11 and the survivor count (dose: 800.0 mg/kg/injection, schedule: Q01DX010 (sc), vehicle: Klucel (hydroxypropylcellulose) (HPC)) is 0 of 3 on day 11.

`C/C=C(\C)c1cc(=O)c2c(C)cc3c(c2o1)C(=O)c1c(O)c(C2CC(C)(N(C)C)C(OC(C)=O)C(C)O2)cc(C2CC(N(C)C)C(O)C(C)O2)c1C3=O` (configuration not stated): the survivor count was 0 of 6 on day 15 (dose: 40.0 mg/kg/injection, schedule: Q04DX004 (sc), vehicle: saline) and 0 of 6 on day 15 (dose: 80.0 mg/kg/injection, schedule: Q04DX004 (sc), vehicle: saline).

With `COc1ccc2c(c1)CCC(c1ccccc1)=C2c1ccc(OCCN2CCCC2)cc1`, under “dose: 100.0 mg/kg/injection, schedule: Q04DX004 (sc), vehicle: Klucel (hydroxypropylcellulose) (HPC), evaluated on day 15”, the T/C was 127 % of control.

Regarding `CN(CCN(C)C(=O)CCOS(C)(=O)=O)C(=O)CCOS(C)(=O)=O`, the survivor count runs as follows: (dose: 300.0 mg/kg/injection, schedule: Q04DX004 (sc), vehicle: saline) 0 of 6 on day 15; (dose: 600.0 mg/kg/injection, schedule: Q04DX004 (sc), vehicle: saline) 0 of 6 on day 15.

With `Cc1cc(O)c(N=Nc2ccc(C(=O)O)cc2)cc1C`, the T/C was 128 % of control (dose: 300.0 mg/kg/injection, schedule: Q04DX004 (sc), vehicle: saline with Tween-80, evaluated on day 15) and 135 % of control (dose: 1200.0 mg/kg/injection, schedule: Q04DX004 (sc), vehicle: saline with Tween-80, evaluated on day 15).

Turning to `CC(=O)NCCCCCCNC(C)=O`, the T/C (dose: 400.0 mg/kg/injection, schedule: Q01DX010 (sc), vehicle: saline, evaluated on day 11) is 126 % of control and the T/C (dose: 800.0 mg/kg/injection, schedule: Q01DX010 (sc), vehicle: saline, evaluated on day 11) is 140 % of control. Moreover, where the note is “dose: 6400.0 mg/kg/injection, schedule: Q01DX010 (sc), vehicle: saline”, the survivor count is given as 0 of 6 on day 11.

On to `C[CH2][Pb]([CH2]C)([CH2]C)[O]C(=O)COc1ccccc1`, for which, where the note is “dose: 36.0 mg/kg/injection, schedule: Q04DX004 (sc), vehicle: saline with Tween-80”, the survivor count is 0 of 6 on day 15.

`C[CH2][Ge]([CH2]C)[CH2]C.C[CH2][Ge]([CH2]C)[CH2]C.C[CH2][Ge]([CH2]C)[O][Ge]([CH2]C)[CH2]C`: the survivor count (dose: 300.0 mg/kg/injection, schedule: Q04DX004 (sc), vehicle: saline with Tween-80) is listed as 2 of 6 on day 15; the survivor count under setting [2] is 0 of 6 on day 15; the survivor count under setting [3] is 0 of 6 on day 15.
